This passage reports binding results from PMC3927929.

Results are given in words; binding and its absence hold for the method and conditions named. In cells and extracts the contact can be indirect.

The experiment has as its target T1, Cdc37 (cell-division cycle 37) (as used in Supplementary Figure S2) (human) (UniProt Q16543).
T1 sequence: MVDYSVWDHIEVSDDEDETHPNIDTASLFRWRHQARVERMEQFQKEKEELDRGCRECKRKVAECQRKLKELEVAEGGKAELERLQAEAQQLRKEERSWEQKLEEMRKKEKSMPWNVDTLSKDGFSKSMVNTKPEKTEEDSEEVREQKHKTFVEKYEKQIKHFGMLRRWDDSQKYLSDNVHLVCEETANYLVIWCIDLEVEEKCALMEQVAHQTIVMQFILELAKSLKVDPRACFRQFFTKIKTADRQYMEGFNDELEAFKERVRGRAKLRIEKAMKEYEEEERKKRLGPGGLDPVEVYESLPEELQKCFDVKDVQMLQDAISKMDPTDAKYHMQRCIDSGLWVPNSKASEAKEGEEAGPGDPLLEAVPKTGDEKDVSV
The experiment is described as follows: co-IP; co-immunoprecipitation among Hsp90α, PKCγ, Hsp70 and Cdc37 (Supplementary Figure S2A, S2B, S2E); also after knock-down of Hsp70 or Cdc37 by siRNA.

As to “Hsp70 (as used in Supplementary Figure S2) (human)”, the binding entry is listed as “no binding”.
